The values that follow come from PubChem BioAssay AID1487 (National Center for Advancing Translational Sciences (NCATS), 2009).

This assay can be described thus: qHTS Assay for Modulators of Lamin A Splicing. Conditions: HeLa LMNA splicing GFP/RFP minigene ratio, 48 h. In a few lines:
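S3 HeLa stable clones carrying a lamin A-EGFP splicing minigene plus DsRed2 were seeded at 600 cells/well in Opti-MEM with 2% FBS, pin-dosed and incubated 48 h at 37°C. Acumen cytometry (488 nm) gave the GFP/RFP total-intensity ratio.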
On the technique in general: qHTS replaces the single test concentration by a dilution series.

Setting [1] is: measured here: GFP splicing reporter channel.
[2] abbreviates: measured here: RFP viability control channel.

Some of the results follow. Further columns of the screen follow, without active or inactive calls. The list favours compounds with an active or inconclusive main result. The note in brackets gives the kind of curve behind each potency; many fits are weak.

As usually defined, the AC50 is the midpoint of the concentration-response curve, whichever way the signal moves.

In the case of `COCc1ccc(CN2CCCC(CO)(Cc3ccccc3)C2)o1` (stereo unspecified), the AC50 by setting is: under setting [1], 0.0224 µM [rising, full curve, poor fit]; under setting [2], 31.6 µM [rising, partial curve]. `COc1cc([N+](=O)[O-])ccc1NC(=O)CSc1n[nH]c(C(C)C)n1`: the half-maximal activity concentration (AC50) under setting [1] is 11.2 µM [falling, partial curve, poor fit]. Turning to `COc1cc2c(cc1OC)C(COc1ccc(F)cc1)N(C(=O)Cc1ccccc1)CC2` (stereo unspecified), the concentration at half-maximal activity (AC50) under setting [2] was 15.8 µM [rising, partial curve, poor fit].

As for `CCN(CC)S(=O)(=O)c1cc(NC(=O)CN2C(=O)NC3(CCCc4ccccc43)C2=O)ccc1C` (stereo unspecified), the AC50 was 17.8 µM [rising, partial curve, poor fit] under setting [1] and 25.1 µM [rising, partial curve] under setting [2]. As for `O=C(CSc1nc2cc(Cl)ccc2s1)NC1CCCc2ccccc21` (stereo unspecified), the AC50 runs as follows: under setting [1], 10 µM [rising, partial curve]; under setting [2], 20 µM [rising, partial curve]. As to `CC(C)[C@H](NC(N)=O)C(=O)NCCc1ccc(Cl)cc1`, under setting [2], the concentration at half-maximal activity (AC50) is 14.1 µM [falling, single point]. On to `Cn1cnc([N+](=O)[O-])c1Oc1ccc2ccccc2c1`, for which the AC50 under setting [2] is 35.5 µM [falling, single point].

Regarding `CC1(C)CC(=O)C(Sc2ccccc2[N+](=O)[O-])=C(O)C1`, under setting [1], the AC50 is 0.0224 µM [falling, full curve, poor fit]. With `Cc1ccccc1NC1=NC(=S)N(c2ccccc2)C12CCCCC2`, the AC50 under setting [2] was 22.4 µM [rising, single point]. Take `C=C1C(C(=O)Nc2cccc(OC)c2)C1C(=O)Nc1cccc(OC)c1` (stereo unspecified): the AC50 under setting [1] is 1.12 µM [falling, full curve]. In the case of `Cc1ccc(-c2nc(CS(=O)(=O)CC(=O)N3CCCCCC3)c(C)o2)cc1`, the half-maximal activity concentration (AC50) under setting [2] was 12.6 µM [rising, partial curve]. For `Cc1[nH]c2ccccc2c1C(=O)CSc1ncn[nH]1`, the AC50 under setting [2] was 35.5 µM [rising, single point].

Take `CCN1CCCC1CNc1ncnc2c1[nH]c1ccc(Cl)cc12` (stereo unspecified): the AC50 runs as follows: under setting [1], 22.4 µM [rising, partial curve, poor fit]; under setting [2], 22.4 µM [rising, single point].

On to `O=C(Nc1ccc(NC(=O)C2CCCN2C(=O)OCc2ccccc2)cc1)c1ccco1` (stereo unspecified), for which the AC50 under setting [1] was 1 µM [rising, full curve, poor fit]. Turning to `COC(=O)c1ccc(-c2noc(CN(Cc3nccn3C)C(C)C)n2)cc1`, the AC50 under setting [2] was 1.26 µM [falling, full curve, poor fit].

In the case of `O=c1oc2ccccc2cc1-c1nc2c(s1)CCCC2`, the AC50 reads like this: under setting [1], 10 µM [rising, single point]; under setting [2], 12.6 µM [rising, partial curve].
